The other results are listed elsewhere or left out.

Amino acid sequences for entries named in this document (tags omitted).
UniProt Q0JBA9, entry or part of it: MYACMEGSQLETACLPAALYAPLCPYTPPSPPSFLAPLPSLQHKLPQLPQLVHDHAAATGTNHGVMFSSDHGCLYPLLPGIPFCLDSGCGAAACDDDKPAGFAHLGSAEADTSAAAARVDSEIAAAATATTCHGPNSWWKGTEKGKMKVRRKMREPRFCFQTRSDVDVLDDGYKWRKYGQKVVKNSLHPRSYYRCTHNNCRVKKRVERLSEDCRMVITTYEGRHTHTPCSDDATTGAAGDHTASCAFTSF

The experiment has as its target OsWRKY34 (Oryza sativa, UniProt Q0JBA9 1-250). The experiment in a line: protein-binding microarray (RPBM); PBS, 2% BSA, 51.3 ng/ul salmon testes DNA, 50 uM zinc acetate, 200 nM TF, 25 C, 1 h; high values mean tight binding. As to conditions: protein: recombinant; tags: N-terminal polyhistidine and DsRed monomer fusion (pET32a); label: CyDye5-dUTP incorporated in the synthesized complementary strand; 3' TTTTT single-stranded linker to array surface; dsDNA, one strand shown. The gist of the method:
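Transcription factors were made in E. coli BL21-CodonPlus as N-terminal fusions to a polyhistidine tag and DsRed, then purified on Ni–NTA. After primer extension with Cy5-dUTP and blocking with 2% BSA, a custom Agilent array was exposed for 1 h at 25 °C to 200 nM protein in PBS, 2% BSA, salmon testes DNA and 50 µM zinc acetate. Washed arrays were scanned on an Axon 4000B, and the binding signal is per-feature fluorescence intensity in arbitrary units.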
Take “AATTAAGGGAGGGGATTAACCGGTAATGGTCTTTGGAGCTCGGAGTCACCTAGTGCAG”: the binding signal is 10200 fluorescence intensity (a.u.). Under “GCCGCGTGTTCCTGCCATTTCGGCGTGCTTGATTCCCTCACGGAGTCACCTAGTGCAG” stands 12800 fluorescence intensity (a.u.). With “CAGGGAGGGTTCGTCAGCCTTTACCAAAGGATGGCTTACACGGAGTCACCTAGTGCAG”, the binding signal was 8560 fluorescence intensity (a.u.).

With “CTTTGGTTCGTTTTGTTTTGGATTCGTTCGGATTCCTCTCCGGAGTCACCTAGTGCAG”, the binding signal is 12100 fluorescence intensity (a.u.).

For the sequence “TTCTCCTTTCCACACTTGTGCTTCGTGTTCGTCGTGGTCTCGGAGTCACCTAGTGCAG”, the binding signal is 8240 fluorescence intensity (a.u.).

Regarding “TTTCATTGTTTGGCGCGCGAAATCTCTCTCATGGCGCGCCCGGAGTCACCTAGTGCAG”, the binding signal was 9150 fluorescence intensity (a.u.). Under “ATGGTACAGCCCACTACTAGCTTCAATTCATCTATAGCCACGGAGTCACCTAGTGCAG” stands 8050 fluorescence intensity (a.u.). In the case of “TGAACGCGTTGACCTAAGTCGCCCATTATCAGACCCACTACGGAGTCACCTAGTGCAG” it was 9990 fluorescence intensity (a.u.). In the case of “GGATACATATTTTTATGGTTTGGGGATCTTAGACAGACTCCGGAGTCACCTAGTGCAG” it was 10600 fluorescence intensity (a.u.); in that of “CCGTTTCGTCGTCCTCCTGATGAGCGGTGGTCCTCGCGCGCGGAGTCACCTAGTGCAG”, 8160 fluorescence intensity (a.u.); in that of “GCCACACTCCCTCAGCAACGTGTTCATCTCTGCACCACCACGGAGTCACCTAGTGCAG”, 10800 fluorescence intensity (a.u.).

As to “GCGTGGTTGATTTTTAGTCTTGTCGACTTCGACTTTAAGCCGGAGTCACCTAGTGCAG”, the binding signal is 9120 fluorescence intensity (a.u.). In the case of “CCCGCATCGCCTCCACCACTGCGGCCTTGCACCACCACCGCGGAGTCACCTAGTGCAG” it was 9440 fluorescence intensity (a.u.); in that of “CTCATTTTCCGCGCGTACGCTTTTCAAACTGCTAAACGGTCGGAGTCACCTAGTGCAG”, 10400 fluorescence intensity (a.u.).

Turning to “AAAGCAGGGGACTGGGTAAGGTGAGTGCGGCGGGTGGGCCCGGAGTCACCTAGTGCAG”, the binding signal was 8920 fluorescence intensity (a.u.). With “GATCACCCGCCCCAAAACCCTCGCCGTCGCGGCCGCCATGCGGAGTCACCTAGTGCAG”, the binding signal was 8560 fluorescence intensity (a.u.).

For the sequence “TTTGTTCTTTGTTGTTCTCTTGTGCACAGGTGAGCAAGAGCGGAGTCACCTAGTGCAG”, the binding signal was 8350 fluorescence intensity (a.u.). Take “CATTCGTAGGAATTTATATACAACGTTTGACCTTTTTCTTCGGAGTCACCTAGTGCAG”: the binding signal was 11500 fluorescence intensity (a.u.). In the case of “CCCACCGCTGTGTCCTCGATCTTCTCTGTCTGTACTGGTCCGGAGTCACCTAGTGCAG” it was 9090 fluorescence intensity (a.u.). Under “TCACCACCAACTTTCATTCAGTACAAACACCATTACTAAACGGAGTCACCTAGTGCAG” stands 8070 fluorescence intensity (a.u.). On to “TTGGCGCGCAATGTTGTGCTCTTGAATTATGCTGTCTAAACGGAGTCACCTAGTGCAG”, for which the binding signal is 8050 fluorescence intensity (a.u.). In the case of “TTCCTGGTTGTTTTGCTCTTCTTGGTTTTCTTGATTTCTTCGGAGTCACCTAGTGCAG” it was 9990 fluorescence intensity (a.u.); in that of “CCGTTTATGCTCTTGCTCTTGCTCTCGATCGCTTGTACATCGGAGTCACCTAGTGCAG”, 12700 fluorescence intensity (a.u.); in that of “GTCAGCGTACAAGAGTGCAATTAGATCGTGCCATTTCAGCCGGAGTCACCTAGTGCAG”, 9030 fluorescence intensity (a.u.). Regarding “GCCTCGCCTCGCCGCCGGCGGCCACCGTCTCCGCCGCCTCCGGAGTCACCTAGTGCAG”, the binding signal was 8800 fluorescence intensity (a.u.).

Consider “TCGCCCATGATCACTTGAAACACCTCCCTTGCTCTTCATGCGGAGTCACCTAGTGCAG”, for which the binding signal was 8360 fluorescence intensity (a.u.). Take “CTAATTGGACATATGACTATTTTTGTTCAAACTATATTTCCGGAGTCACCTAGTGCAG”: the binding signal is 8230 fluorescence intensity (a.u.). Take “GTAGTTTTCATTAATGTTTAATCAGCTCTATATATTTGAACGGAGTCACCTAGTGCAG”: the binding signal was 9290 fluorescence intensity (a.u.). In the case of “AGATGGCTTCCCTGCAGTGTTTTTTGTTTTTATTTTTACGCGGAGTCACCTAGTGCAG” it was 9980 fluorescence intensity (a.u.); in that of “GCACATGACTCACACATTTGTGCTCGGGACTATTATATTGCGGAGTCACCTAGTGCAG”, 8450 fluorescence intensity (a.u.).

For “CTCCACCACCTGCGCGCCGCGGCCAGCGCCGCAGTAGACCCGGAGTCACCTAGTGCAG”, the binding signal is 9010 fluorescence intensity (a.u.). In the case of “TTATGGTTGTTTTCTTCGGTTCTTTGTTTTTTTAAAAAAACGGAGTCACCTAGTGCAG” it was 11600 fluorescence intensity (a.u.); in that of “GATACGGCTACACTTTTTTCTCCCTTCCATTCCATTCCATCGGAGTCACCTAGTGCAG”, 10200 fluorescence intensity (a.u.).

Consider “TCTACCCGCTCCACGCCGCCTCGTCATCCCTTCATTACTACGGAGTCACCTAGTGCAG”, for which the binding signal was 9410 fluorescence intensity (a.u.).

Consider “GCTTTCCATTTGCCAGCCGGAGTGCTCTCTATCGCCGAGGCGGAGTCACCTAGTGCAG”, for which the binding signal is 10200 fluorescence intensity (a.u.).

For “TTGGTCTGTTTCTTGGGTTGGCATTATTGCAAGATTTGGACGGAGTCACCTAGTGCAG”, the binding signal is 10400 fluorescence intensity (a.u.). Take “GTCAGCCCCGAGCTTCATCGCTGTCGCGCATCTTGTCTCTCGGAGTCACCTAGTGCAG”: the binding signal was 8820 fluorescence intensity (a.u.). In the case of “CATCCACTATATAGTAGTGTCACCACCTCTCGTTCTCGTTCGGAGTCACCTAGTGCAG” it was 9510 fluorescence intensity (a.u.); in that of “GATGGGAAATGGGAGGTGGATTGGATTGGATGGGAACTGGCGGAGTCACCTAGTGCAG”, 8400 fluorescence intensity (a.u.); in that of “TCGACCAGCCGCAATTTGCTGTAGTTTTTAAACTTCATGTCGGAGTCACCTAGTGCAG”, 8050 fluorescence intensity (a.u.). Under “CATAGTCGTCTTCCTCGATCAATCCGCTCCGCTCCGTCTTCGGAGTCACCTAGTGCAG” stands 8440 fluorescence intensity (a.u.); under “ATACTTAATTGTGTTTCATGATGAATCGTTGACCGTTGAGCGGAGTCACCTAGTGCAG”, 10100 fluorescence intensity (a.u.); under “ATCACTACGCTCCTTGCTTTTCTGCGCGATATGATTCTGACGGAGTCACCTAGTGCAG”, 12900 fluorescence intensity (a.u.). Under “GAACTCTTTGCATTATTCTTGGAAGGCCCTATATACAATTCGGAGTCACCTAGTGCAG” stands 10100 fluorescence intensity (a.u.); under “ATTTCATTCATATGCATTAAAACTAGCTTGGAATAATTTTCGGAGTCACCTAGTGCAG”, 8120 fluorescence intensity (a.u.).

For “ATACTCCCTCCGTCCCCAAGGTTGGCTTTTTTTTTTTGAGCGGAGTCACCTAGTGCAG”, the binding signal was 9810 fluorescence intensity (a.u.).

As to “TAGCACTAAAACGAGAGGCCTTTTGATTTAGATTTTGCCACGGAGTCACCTAGTGCAG”, the binding signal is 21900 fluorescence intensity (a.u.). Under “TATTGTTGGGTATTTGGTTTTCTCTCCACGCTTGTATATACGGAGTCACCTAGTGCAG” stands 10100 fluorescence intensity (a.u.); under “AGTCCCATGTGAGTTATCCATATAAACCTAAGTCTGCTCACGGAGTCACCTAGTGCAG”, 8400 fluorescence intensity (a.u.); under “ATTCTCTTATTTTTCCTCTTTATTAACCGATTTGGTTCAGCGGAGTCACCTAGTGCAG”, 8640 fluorescence intensity (a.u.).

With “TCCTCCTCCGTCCATCGCAGCTACTGCCTCCTTCTTCTTCCGGAGTCACCTAGTGCAG”, the binding signal was 8030 fluorescence intensity (a.u.). In the case of “ACAATCCGATCTTATTTGCTCTAGCTTTGTCTCTCTCCAACGGAGTCACCTAGTGCAG” it was 9810 fluorescence intensity (a.u.). Consider “GCCGCCTCCGCCATCGCCTCCGCCACCTCCACCATCGTCGCGGAGTCACCTAGTGCAG”, for which the binding signal is 8960 fluorescence intensity (a.u.). In the case of “TGAGTTTCTATTTGGTTTGGTGAGAATGCATTTCATATCTCGGAGTCACCTAGTGCAG”, the binding signal was 9580 fluorescence intensity (a.u.).
